Reference: PubChem BioAssay (Tox21)
Values joined by “and” are separate entries in the source; they are usually repeats but may differ in a detail not shown here. Equal values may be shown once. The shares of active, inactive and inconclusive entries below differ from those in the screen. A potency beside an inconclusive call is a rough fit, not a confirmed value. Active and inactive are the calls of the source. Calls follow the shape of the full dose curve.

Target: Beta-2 adrenergic receptor (Homo sapiens) (UniProt P07550)
Assay: Adrenergic beta2 receptor (ADRB2) small molecule agonists, cell-based qHTS assay (AID 1963593);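 as to activation: CHO cells stably overexpressing human ADRB2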
Conditions: CHO-ADRB2 cells, cAMP HTRF, 30 min; activation: at 92.4 µM (top of the series) unless noted
Summary of the method: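 CHO cells stably over-expressing ADRB2 were plated overnight at 37C, then dosed with compounds plus a stimulation mix containing 100uM IBMX and 25uM Ro-20-1724 for 0.5hr at room temperature. cAMP was measured by HTRF competition, 1hr.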
% is scaled to controls: 0 for no effect and ±100 for the full control effect; potency is read from the fitted curve at half-maximal effect.

Q: How did the “activation” value turn out when `Cc1cc(C)cc(N)c1` was run?
A: inactive: -8.12%

Q: With `Cc1cccc([N+](=O)[O-])c1C(=O)O` as the molecule, how does the activation read?
A: inconclusive: -11.7%

Q: With `OCCOc1ccc(OCCO)cc1` as the molecule, how does the Potency read?
A: inconclusive: 0.248 µM [inhibitor, single point]

Q: With `CC(=O)N[C@@H](CCC(=O)O)C(=O)O` as the molecule, how does the Potency read?
A: inconclusive: 33.5 µM [inhibitor, partial curve, poor fit]

Q: For `CCCCCCCCCC(=O)OCC`, which activation is on record?
A: inconclusive: 11.5%

Q: `CC1CCC(C(C)CS)CC1S` (stereo not given) was tested. Which activation did it give?
A: inconclusive: -21.3%

Q: Which activation does the source give for `CCOc1ccc(NC(N)=O)cc1` here?
A: inconclusive: 9.11%

Q: How did the “activation” value turn out when `C=CC(C)(O)CC/C=C(\C)CC` (stereo not given) was run?
A: inactive: -6.83%

Q: How did the Potency turn out when `CCC(C)C1N=C(C)C(C)S1` (stereo not given) was run?
A: inconclusive: 3.86 µM [inhibitor, full curve, poor fit]

Q: `Oc1ccc2c(c1)Cc1ccccc1-2` was tested. Which Potency did it give?
A: inconclusive: 61.1 µM [inhibitor, partial curve, poor fit]

Q: How did the “activation” value turn out when `O=c1[nH][nH]c(=O)c2cc([N+](=O)[O-])ccc12` was run?
A: inactive: 0.933%

Q: Which Potency does the source give for `CC/C(C)=N/O` here?
A: inactive and inconclusive: 864 nM [inhibitor, single point]

Q: `CC(C)(C(=O)O)c1ccc(C(O)CCCN2CCC(C(O)(c3ccccc3)c3ccccc3)CC2)cc1` (stereo not given) was tested. Which activation did it give?
A: inconclusive: -23.5% [at 42.5 µM]

Q: `O=C(Oc1ccccc1C(=O)O)c1ccccc1O` was tested. Which “activation” value did it give?
A: inactive: 7.28% [at 42.5 µM]

Q: `Cc1ccc(N)nc1` was tested. Which activation did it give?
A: inconclusive: 38.5%

Q: Which “activation” value does the source give for `OCC1(CO)COCOC1` here?
A: inactive: 1.57%

Q: `O=S(=O)(O)c1cccc2ccccc12` was tested. Which Potency did it give?
A: inconclusive: 54.5 µM [inhibitor, partial curve, poor fit]

Q: `CC1CCC2CC1C2(C)C` (stereo not given) was tested. Which activation did it give?
A: inconclusive: 16.1% and inconclusive: 2.17%

Q: How did the Potency turn out when `O=[N+]([O-])c1ccccc1CCO` was run?
A: inconclusive: 0.246 µM [inhibitor, single point]

Q: For `CCO/C([O-])=N/c1c[n+](N2CCOCC2)no1`, which “activation” value is on record?
A: inactive: 0.391% [at 42.5 µM]

Q: With `O=S(=O)(O)CO` as the molecule, how does the “activation” value read?
A: inactive: -4.5%

Q: With `C1CN(CCOCCN2CCOCC2)CCO1` as the molecule, how does the “activation” value read?
A: inactive: -15.9%

Q: Which “activation” value does the source give for `O=C(O)CNC(=O)c1ccc(CO)o1` here?
A: inactive: -18.7%

Q: `CC(C)(C)c1n[nH]c(=O)n(N)c1=O` was tested. Which “activation” value did it give?
A: inactive: 29.4%

Q: Which activation does the source give for `NCCc1cnc[nH]1` here?
A: inconclusive: 1.5% [at 42.5 µM]

Q: For `CCCCCCOC(=O)CCCCCCCC(=O)OCCCCCC`, which “activation” value is on record?
A: inactive: -2.32%

Q: With `c1cc(CCCc2ccncc2)ccn1` as the molecule, how does the “activation” value read?
A: inactive: -4.73%

Q: `COc1cc(N)ccc1C` was tested. Which “activation” value did it give?
A: inactive: -31.8%

Q: With `CCOc1ccc2nc(S(N)(=O)=O)sc2c1` as the molecule, how does the “activation” value read?
A: inactive: -2.23% [at 42.5 µM]

Q: For `CCCCCCCCS(=O)(=O)O`, which activation is on record?
A: inconclusive: 7.98%

Q: With `CCC(=O)CC` as the molecule, how does the “activation” value read?
A: inactive: 9.54%

Q: With `CC(=O)C=O` as the molecule, how does the activation read?
A: inconclusive: 0.444%

Q: Which “activation” value does the source give for `CC(C)=CCC[C@H](C)CC=O` here?
A: inactive: 26.1%

Q: With `Cc1cc(CCC(=O)OCCOCCOCCOC(=O)CCc2cc(C)c(O)c(C(C)(C)C)c2)cc(C(C)(C)C)c1O` as the molecule, how does the Potency read?
A: inconclusive: 0.422 µM [inhibitor, full curve, poor fit]

Q: With `BrCCCCCBr` as the molecule, how does the activation read?
A: inconclusive: -33.4%

Q: With `CC(C)CCC(=O)CCC(C)C` as the molecule, how does the activation read?
A: inconclusive: -27.1%

Q: `CC1=CC(=O)CCC1` was tested. Which activation did it give?
A: inconclusive: 4.5%

Q: Which activation does the source give for `NS(=O)(=O)c1cc2c(cc1Cl)NC(C(Cl)Cl)NS2(=O)=O` (stereo not given) here?
A: inconclusive: 8.81% [at 42.5 µM]

Q: How did the activation turn out when `C=C1C[C@@]23CC[C@H]4[C@@](C)(CCC[C@@]4(C)C(=O)O[C@@H]4O[C@H](CO)[C@@H](O)[C@H](O)[C@H]4O)[C@@H]2CC[C@]1(O[C@@H]1O[C@H](CO)[C@@H](O)[C@H](O[C@@H]2O[C@H](CO)[C@@H](O)[C@H](O)[C@H]2O)[C@H]1O[C@@H]1O[C@H](CO)[C@@H](O)[C@H](O)[C@H]1O)C3` was run?
A: inconclusive: 1.48%

Q: With `O=C(O)/C=C/c1ccc(/C=C/C(=O)O)cc1` as the molecule, how does the activation read?
A: inconclusive: -2.93% [at 42.5 µM]
